Data from paper PMC11637768.
Results are given in words; binding and its absence hold for the method and conditions named. In cells and extracts the contact can be indirect. Binding calls can cover weak binding; strength is not graded here. Tags and fused reporters may be left off the sequences shown.

What was measured:
[1] = molecular target: T1, VH1-interacting kinase (VIK), recombinant with GST or His tag (Arabidopsis thaliana) (UniProt Q9XI87); test: pull-down; His/GST pull-down in vitro; proteins expressed in E. coli Rosetta incubated with BeaverBeads IDA-Nickel at 4 °C for 4 h; immunoblot with anti-His and anti-GST; both orientations
T1 sequence: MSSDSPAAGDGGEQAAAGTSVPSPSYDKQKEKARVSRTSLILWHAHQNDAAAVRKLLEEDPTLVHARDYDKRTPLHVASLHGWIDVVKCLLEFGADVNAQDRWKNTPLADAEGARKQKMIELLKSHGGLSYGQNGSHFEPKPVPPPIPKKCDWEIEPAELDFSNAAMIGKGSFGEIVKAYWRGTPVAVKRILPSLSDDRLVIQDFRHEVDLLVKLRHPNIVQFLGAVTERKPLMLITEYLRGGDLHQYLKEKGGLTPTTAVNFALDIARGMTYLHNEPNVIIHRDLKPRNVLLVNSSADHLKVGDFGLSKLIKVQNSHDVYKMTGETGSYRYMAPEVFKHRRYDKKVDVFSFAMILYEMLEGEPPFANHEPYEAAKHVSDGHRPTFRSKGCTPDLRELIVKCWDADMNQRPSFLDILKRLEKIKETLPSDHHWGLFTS

[2] = molecular target: YELLOW, SERRATED LEAF (YSL)-His fusion protein (Arabidopsis thaliana); test: as above
[3] = molecular target: YSL-YFP^C (Arabidopsis thaliana); test: split reporter; BiFC; YSL-YFP^C and VIK-YFP^N coexpressed in N. benthamiana leaves by agroinfiltration; confocal microscopy after 36 to 48 h

YELLOW, SERRATED LEAF (YSL)-His fusion protein (Arabidopsis thaliana)
binding [1]: binds

B1: VH1-interacting kinase (VIK), recombinant with GST or His tag (protein, UniProt Q9XI87 1-438)
chain: MSSDSPAAGDGGEQAAAGTSVPSPSYDKQKEKARVSRTSLILWHAHQNDAAAVRKLLEEDPTLVHARDYDKRTPLHVASLHGWIDVVKCLLEFGADVNAQDRWKNTPLADAEGARKQKMIELLKSHGGLSYGQNGSHFEPKPVPPPIPKKCDWEIEPAELDFSNAAMIGKGSFGEIVKAYWRGTPVAVKRILPSLSDDRLVIQDFRHEVDLLVKLRHPNIVQFLGAVTERKPLMLITEYLRGGDLHQYLKEKGGLTPTTAVNFALDIARGMTYLHNEPNVIIHRDLKPRNVLLVNSSADHLKVGDFGLSKLIKVQNSHDVYKMTGETGSYRYMAPEVFKHRRYDKKVDVFSFAMILYEMLEGEPPFANHEPYEAAKHVSDGHRPTFRSKGCTPDLRELIVKCWDADMNQRPSFLDILKRLEKIKETLPSDHHWGLFTS
binding [2]: binds

B2: VIK-YFP^N (protein, UniProt Q9XI87 1-438)
chain: MSSDSPAAGDGGEQAAAGTSVPSPSYDKQKEKARVSRTSLILWHAHQNDAAAVRKLLEEDPTLVHARDYDKRTPLHVASLHGWIDVVKCLLEFGADVNAQDRWKNTPLADAEGARKQKMIELLKSHGGLSYGQNGSHFEPKPVPPPIPKKCDWEIEPAELDFSNAAMIGKGSFGEIVKAYWRGTPVAVKRILPSLSDDRLVIQDFRHEVDLLVKLRHPNIVQFLGAVTERKPLMLITEYLRGGDLHQYLKEKGGLTPTTAVNFALDIARGMTYLHNEPNVIIHRDLKPRNVLLVNSSADHLKVGDFGLSKLIKVQNSHDVYKMTGETGSYRYMAPEVFKHRRYDKKVDVFSFAMILYEMLEGEPPFANHEPYEAAKHVSDGHRPTFRSKGCTPDLRELIVKCWDADMNQRPSFLDILKRLEKIKETLPSDHHWGLFTS
binding [3]: binds
